The source of these data is article PMC9373806.

Amino acid sequences for entries named in this document (tags omitted).
UniProt Q4V8I7: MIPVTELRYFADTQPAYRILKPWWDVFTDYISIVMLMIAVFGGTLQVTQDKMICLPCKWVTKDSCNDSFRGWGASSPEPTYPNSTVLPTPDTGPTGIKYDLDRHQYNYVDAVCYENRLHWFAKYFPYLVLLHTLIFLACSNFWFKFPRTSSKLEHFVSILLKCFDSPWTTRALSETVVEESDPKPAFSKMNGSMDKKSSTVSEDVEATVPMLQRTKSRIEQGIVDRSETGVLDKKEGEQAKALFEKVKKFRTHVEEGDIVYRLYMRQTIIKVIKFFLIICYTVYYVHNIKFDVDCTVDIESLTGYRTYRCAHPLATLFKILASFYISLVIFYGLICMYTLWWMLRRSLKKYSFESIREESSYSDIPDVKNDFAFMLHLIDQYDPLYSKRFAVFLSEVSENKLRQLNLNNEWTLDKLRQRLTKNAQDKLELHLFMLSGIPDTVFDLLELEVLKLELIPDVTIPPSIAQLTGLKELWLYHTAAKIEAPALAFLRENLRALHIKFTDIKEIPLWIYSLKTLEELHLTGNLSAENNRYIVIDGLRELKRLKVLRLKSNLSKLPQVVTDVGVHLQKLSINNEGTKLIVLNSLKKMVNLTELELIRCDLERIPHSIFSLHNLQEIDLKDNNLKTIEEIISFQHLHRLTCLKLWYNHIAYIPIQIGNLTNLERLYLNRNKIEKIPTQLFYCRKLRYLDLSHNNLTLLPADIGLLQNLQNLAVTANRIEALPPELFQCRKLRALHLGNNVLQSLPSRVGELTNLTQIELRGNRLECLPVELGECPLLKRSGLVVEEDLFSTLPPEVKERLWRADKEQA
UniProt P62994: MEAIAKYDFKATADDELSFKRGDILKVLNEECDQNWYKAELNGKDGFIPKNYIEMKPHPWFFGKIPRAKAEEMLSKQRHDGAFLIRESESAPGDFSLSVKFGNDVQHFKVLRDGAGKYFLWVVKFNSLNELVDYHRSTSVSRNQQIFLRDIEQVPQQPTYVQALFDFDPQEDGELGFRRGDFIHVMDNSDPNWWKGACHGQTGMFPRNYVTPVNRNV
UniProt Q62689: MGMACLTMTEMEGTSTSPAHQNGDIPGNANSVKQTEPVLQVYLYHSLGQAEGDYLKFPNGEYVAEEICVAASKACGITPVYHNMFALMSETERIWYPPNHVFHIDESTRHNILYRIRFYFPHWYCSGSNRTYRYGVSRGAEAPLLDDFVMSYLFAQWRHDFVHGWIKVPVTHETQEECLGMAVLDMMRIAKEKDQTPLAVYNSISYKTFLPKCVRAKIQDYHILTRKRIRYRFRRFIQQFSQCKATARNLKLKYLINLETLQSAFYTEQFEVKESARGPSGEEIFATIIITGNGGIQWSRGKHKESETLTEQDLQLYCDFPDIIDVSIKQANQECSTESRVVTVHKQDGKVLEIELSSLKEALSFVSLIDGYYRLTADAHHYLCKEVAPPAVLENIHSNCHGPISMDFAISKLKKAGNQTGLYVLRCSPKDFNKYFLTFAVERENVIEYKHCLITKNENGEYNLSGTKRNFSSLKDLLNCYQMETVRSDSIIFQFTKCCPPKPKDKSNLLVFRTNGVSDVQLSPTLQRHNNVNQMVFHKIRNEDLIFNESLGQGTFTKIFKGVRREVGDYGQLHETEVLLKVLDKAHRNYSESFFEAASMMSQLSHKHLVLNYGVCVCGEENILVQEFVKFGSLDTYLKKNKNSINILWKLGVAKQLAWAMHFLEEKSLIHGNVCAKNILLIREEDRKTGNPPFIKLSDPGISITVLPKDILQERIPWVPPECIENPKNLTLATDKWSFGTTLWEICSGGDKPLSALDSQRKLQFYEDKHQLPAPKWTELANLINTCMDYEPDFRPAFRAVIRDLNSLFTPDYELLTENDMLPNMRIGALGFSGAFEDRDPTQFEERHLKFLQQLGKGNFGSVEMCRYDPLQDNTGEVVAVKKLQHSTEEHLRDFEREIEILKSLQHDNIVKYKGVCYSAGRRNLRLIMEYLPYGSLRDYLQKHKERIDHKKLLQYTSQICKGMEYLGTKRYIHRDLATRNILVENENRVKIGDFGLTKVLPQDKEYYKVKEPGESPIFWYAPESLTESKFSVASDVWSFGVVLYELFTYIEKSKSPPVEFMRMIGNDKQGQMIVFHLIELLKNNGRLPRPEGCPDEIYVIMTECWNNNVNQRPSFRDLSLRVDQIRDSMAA

These are yes or no findings as the source states them, for the method shown. In cells and extracts the contact can be indirect. Some entries that bind do so weakly or less than the wild type.

The target of the assay is Leucine-rich repeat-containing protein 8A, rat wild-type full length (LV-Lrrc8aWT) (rat) (UniProt Q4V8I7). Description: co-IP; fibroblasts transfected with lentivirus vectors LV-Lrrc8aWT, LV-Lrrc8aΔLRRD or LV-Control; which protein was precipitated is not told in the text shown.

In the case of “Growth factor receptor-bound protein 2 (from UniProt P62994 1-217)”, the binding result is given as “binds”.
For “Janus kinase-2 (from UniProt Q62689 1-1132)”, the binding entry was “binds”.
